The other results are listed elsewhere or left out.
How the values were obtained:
Assay in all cases: log2 fold change, soluble protein after heating vs DMSO (PISA); higher = thermal stabilisation; K562 lysate, 10 uM; active = over 0.2 and 3.5 SD of the protein, either way, in both replicates (recomputed)
erlotinib = compound: C#Cc1cccc(Nc2ncnc3cc(OCCOC)c(OCCOC)cc23)c1 [erlotinib]
Method in brief: (§1)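 Soluble protein was defined as the supernatant remaining after 21,000xg for 90 min, following pooling of heated aliquots and adjustment to 0.5% NP-40 at 4°C. Before that, crude K562 extract at 1 mg/mL protein in PBS pH 7.4 with 1 mM MgCl2 was treated with 10 μM compound for 30 min and heated for 3 min across 48°C-58°C. Quantification used TMTpro 16plex LC-MS/MS with channel sums equalised, and values are log-two fold changes in thermal stability relative to solvent controls from duplicates.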

By UniProt entry, the sequences of proteins in these tests, tags left out. Where a name states a change or a piece, a line headed by the entry shows the natural chain unless it says otherwise.
UniProt O75787, whole entry, looked up: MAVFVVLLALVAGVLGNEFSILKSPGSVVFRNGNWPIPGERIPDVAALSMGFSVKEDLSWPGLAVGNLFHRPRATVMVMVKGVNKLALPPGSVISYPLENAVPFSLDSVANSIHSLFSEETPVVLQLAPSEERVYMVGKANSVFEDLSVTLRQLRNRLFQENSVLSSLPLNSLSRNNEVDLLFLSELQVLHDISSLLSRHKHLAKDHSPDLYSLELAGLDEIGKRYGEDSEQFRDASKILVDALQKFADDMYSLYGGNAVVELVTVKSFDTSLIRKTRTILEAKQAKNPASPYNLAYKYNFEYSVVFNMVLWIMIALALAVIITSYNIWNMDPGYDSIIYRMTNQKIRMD
UniProt P56385: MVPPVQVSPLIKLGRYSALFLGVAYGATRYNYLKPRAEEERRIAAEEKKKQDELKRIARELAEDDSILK
UniProt O95671: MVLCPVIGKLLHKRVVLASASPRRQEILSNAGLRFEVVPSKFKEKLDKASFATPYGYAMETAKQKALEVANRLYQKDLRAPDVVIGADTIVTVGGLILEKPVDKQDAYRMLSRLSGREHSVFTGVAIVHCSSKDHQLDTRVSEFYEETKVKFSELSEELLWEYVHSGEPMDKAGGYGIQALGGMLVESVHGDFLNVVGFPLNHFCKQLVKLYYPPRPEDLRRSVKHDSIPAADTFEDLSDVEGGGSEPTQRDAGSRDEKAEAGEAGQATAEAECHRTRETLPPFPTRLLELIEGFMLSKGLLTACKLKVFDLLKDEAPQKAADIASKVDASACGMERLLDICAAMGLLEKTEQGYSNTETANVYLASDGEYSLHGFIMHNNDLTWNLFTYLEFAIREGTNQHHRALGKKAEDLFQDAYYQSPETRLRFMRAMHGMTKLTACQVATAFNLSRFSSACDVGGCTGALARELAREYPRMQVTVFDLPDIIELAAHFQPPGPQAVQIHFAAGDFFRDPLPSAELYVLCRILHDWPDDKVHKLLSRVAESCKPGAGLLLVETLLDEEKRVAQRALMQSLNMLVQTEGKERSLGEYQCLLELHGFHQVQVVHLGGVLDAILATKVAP
UniProt O75947: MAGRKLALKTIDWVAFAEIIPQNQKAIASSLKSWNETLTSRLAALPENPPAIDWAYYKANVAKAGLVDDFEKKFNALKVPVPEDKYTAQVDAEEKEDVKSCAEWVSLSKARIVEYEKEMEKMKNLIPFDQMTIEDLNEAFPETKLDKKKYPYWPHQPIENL
UniProt P20020: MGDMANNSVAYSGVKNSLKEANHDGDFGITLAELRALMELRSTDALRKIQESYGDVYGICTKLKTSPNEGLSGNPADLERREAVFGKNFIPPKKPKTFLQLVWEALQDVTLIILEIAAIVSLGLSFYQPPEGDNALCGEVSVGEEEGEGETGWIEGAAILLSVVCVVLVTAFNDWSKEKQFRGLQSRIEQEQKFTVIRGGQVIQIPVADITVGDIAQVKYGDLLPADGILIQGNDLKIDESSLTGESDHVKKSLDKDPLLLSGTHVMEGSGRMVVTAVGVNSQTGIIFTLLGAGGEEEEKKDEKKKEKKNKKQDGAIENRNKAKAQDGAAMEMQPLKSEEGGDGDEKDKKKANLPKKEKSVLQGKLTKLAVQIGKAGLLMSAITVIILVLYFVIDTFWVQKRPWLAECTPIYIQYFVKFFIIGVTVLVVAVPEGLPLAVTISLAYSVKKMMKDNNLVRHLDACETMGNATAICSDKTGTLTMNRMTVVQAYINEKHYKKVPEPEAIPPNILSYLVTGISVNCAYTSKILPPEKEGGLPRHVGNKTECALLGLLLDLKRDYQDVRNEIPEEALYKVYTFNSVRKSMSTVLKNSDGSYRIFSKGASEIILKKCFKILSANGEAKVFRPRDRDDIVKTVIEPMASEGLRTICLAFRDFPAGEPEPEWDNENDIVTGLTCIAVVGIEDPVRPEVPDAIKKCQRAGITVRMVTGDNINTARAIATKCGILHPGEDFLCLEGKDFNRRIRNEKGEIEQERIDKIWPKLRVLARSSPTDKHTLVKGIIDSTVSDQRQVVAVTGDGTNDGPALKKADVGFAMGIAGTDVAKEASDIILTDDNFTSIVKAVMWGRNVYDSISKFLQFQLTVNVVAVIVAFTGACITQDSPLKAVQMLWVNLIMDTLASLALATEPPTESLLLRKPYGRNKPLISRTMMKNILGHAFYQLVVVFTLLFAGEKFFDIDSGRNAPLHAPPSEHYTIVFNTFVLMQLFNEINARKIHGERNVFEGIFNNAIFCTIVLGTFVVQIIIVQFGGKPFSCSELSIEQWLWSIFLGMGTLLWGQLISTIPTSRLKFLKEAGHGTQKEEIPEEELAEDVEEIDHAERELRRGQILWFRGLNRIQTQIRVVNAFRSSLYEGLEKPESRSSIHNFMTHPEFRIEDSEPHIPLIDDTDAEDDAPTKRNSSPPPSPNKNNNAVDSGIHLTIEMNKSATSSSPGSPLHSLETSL
UniProt Q5U623: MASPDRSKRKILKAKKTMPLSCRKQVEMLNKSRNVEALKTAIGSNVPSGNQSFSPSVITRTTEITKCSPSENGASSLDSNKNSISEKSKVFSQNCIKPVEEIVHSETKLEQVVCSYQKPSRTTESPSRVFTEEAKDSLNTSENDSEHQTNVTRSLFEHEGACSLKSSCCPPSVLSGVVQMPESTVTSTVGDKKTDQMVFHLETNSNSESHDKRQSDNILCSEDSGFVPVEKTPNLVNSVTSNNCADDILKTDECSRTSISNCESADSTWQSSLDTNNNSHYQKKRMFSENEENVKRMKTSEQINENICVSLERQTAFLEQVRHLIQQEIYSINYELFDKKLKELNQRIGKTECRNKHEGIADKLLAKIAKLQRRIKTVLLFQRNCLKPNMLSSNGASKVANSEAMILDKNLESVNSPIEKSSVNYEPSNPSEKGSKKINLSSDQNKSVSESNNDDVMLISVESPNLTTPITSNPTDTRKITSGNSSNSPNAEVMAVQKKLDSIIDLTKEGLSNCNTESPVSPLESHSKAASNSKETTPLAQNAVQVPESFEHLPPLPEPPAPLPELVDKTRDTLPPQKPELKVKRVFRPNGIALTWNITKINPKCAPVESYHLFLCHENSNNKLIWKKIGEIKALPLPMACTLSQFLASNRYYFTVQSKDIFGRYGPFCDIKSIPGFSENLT
UniProt P18847: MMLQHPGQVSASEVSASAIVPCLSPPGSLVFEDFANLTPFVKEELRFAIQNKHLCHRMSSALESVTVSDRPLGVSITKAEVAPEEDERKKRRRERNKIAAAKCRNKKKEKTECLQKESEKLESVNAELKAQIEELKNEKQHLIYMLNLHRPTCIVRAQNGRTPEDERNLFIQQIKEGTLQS
UniProt Q8IXJ9: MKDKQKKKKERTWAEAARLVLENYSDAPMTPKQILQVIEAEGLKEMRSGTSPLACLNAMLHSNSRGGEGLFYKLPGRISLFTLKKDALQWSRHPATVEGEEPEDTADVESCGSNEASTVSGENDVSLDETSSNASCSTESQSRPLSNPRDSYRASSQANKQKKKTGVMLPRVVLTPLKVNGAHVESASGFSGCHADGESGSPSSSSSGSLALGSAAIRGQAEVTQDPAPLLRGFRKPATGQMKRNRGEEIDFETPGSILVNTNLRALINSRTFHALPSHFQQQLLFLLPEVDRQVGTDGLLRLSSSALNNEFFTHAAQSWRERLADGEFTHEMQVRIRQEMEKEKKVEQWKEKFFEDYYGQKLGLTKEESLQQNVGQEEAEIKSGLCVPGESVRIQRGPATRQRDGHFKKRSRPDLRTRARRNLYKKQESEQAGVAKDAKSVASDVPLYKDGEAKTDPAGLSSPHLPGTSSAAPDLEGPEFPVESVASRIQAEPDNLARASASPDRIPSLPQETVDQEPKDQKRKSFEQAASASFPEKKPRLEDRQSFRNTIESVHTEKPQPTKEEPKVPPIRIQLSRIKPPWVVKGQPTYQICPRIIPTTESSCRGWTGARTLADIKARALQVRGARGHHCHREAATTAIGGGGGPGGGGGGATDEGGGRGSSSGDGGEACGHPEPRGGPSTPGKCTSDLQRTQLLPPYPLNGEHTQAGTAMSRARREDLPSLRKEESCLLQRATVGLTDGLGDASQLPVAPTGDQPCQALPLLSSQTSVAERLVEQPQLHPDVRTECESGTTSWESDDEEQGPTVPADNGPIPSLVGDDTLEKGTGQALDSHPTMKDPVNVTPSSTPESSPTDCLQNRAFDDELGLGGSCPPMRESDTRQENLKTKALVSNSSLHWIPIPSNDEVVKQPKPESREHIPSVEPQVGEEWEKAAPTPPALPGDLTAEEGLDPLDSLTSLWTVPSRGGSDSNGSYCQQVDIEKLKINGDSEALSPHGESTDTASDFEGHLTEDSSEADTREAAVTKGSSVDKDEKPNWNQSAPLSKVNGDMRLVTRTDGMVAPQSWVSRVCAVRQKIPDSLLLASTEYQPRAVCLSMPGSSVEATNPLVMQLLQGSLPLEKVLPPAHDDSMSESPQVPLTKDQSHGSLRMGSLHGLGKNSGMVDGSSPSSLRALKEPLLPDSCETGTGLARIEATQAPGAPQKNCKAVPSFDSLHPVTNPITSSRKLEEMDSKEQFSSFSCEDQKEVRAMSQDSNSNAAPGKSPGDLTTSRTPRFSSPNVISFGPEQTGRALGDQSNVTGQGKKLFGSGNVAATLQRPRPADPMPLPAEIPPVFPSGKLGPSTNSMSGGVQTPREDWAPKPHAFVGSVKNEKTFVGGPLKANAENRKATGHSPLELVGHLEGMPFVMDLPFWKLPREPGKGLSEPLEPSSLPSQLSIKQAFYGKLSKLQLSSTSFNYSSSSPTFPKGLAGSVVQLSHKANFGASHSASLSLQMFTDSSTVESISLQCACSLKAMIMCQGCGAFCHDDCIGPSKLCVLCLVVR
UniProt P27449, whole entry, looked up: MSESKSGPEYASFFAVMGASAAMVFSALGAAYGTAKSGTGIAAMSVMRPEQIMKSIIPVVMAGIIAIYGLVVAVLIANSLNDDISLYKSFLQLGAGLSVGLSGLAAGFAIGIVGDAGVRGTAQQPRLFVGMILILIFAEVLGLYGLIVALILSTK
UniProt Q9BYG0: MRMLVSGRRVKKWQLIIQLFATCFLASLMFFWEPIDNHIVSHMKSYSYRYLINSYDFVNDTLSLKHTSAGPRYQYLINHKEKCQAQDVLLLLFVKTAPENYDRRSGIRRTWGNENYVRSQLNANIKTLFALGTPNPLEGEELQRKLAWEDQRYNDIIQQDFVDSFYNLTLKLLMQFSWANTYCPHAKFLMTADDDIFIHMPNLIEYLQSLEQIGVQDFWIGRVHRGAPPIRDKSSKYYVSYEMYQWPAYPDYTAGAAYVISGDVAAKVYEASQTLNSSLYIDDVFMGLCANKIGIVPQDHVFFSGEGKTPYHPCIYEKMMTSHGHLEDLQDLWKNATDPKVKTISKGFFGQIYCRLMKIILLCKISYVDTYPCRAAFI
UniProt Q8WWM7: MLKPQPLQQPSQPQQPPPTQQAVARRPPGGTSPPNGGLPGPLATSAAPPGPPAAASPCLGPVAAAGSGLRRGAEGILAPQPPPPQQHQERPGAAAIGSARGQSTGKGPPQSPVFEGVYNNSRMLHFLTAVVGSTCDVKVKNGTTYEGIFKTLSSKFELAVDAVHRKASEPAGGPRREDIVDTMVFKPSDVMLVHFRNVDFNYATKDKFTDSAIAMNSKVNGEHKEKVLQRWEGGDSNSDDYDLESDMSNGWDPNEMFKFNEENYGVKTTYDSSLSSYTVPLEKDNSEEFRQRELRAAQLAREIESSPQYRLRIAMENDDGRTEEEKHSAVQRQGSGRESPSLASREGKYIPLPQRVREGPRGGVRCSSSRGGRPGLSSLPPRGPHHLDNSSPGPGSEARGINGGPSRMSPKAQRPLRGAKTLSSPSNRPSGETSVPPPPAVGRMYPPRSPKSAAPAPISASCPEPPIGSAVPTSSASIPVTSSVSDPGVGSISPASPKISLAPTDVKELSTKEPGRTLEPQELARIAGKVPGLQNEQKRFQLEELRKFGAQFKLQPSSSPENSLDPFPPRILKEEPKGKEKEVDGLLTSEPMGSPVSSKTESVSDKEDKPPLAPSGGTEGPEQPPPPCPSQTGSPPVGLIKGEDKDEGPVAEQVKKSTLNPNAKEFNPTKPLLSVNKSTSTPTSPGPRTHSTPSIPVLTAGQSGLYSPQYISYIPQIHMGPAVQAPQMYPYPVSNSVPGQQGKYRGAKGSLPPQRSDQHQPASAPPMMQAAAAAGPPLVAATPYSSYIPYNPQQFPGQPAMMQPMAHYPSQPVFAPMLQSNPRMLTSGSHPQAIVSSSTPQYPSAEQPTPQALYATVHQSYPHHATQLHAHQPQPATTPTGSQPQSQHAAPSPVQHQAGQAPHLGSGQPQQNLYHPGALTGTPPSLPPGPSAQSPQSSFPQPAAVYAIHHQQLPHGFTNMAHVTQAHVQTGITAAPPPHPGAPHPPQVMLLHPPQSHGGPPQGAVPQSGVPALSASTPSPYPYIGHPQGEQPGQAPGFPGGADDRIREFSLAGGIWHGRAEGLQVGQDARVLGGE

[1] = compound: C/C(=N\NC(=O)C1=CC(=CC=C1)S(=O)(=O)N2CCOCC2)/C3=C(C=CC(=C3)Cl)O
Method in brief: as §1

[2] = compound: C1=CC(=CC=C1C2=NC3=C(N2)C=C(C=C3)C(=O)N)OC4=CC=C(C=C4)Cl
Method in brief: as §1

[3] = compound: C1=CC2=C(C=CC(=C2)/C=C\3/C(=O)NC(=NCC4=CC=CS4)S3)N=C1
Method in brief: as §1

[4] = compound: C1=CC2=NC=CN=C2C=C1/C=C/3\C(=O)NC(=O)S3
Method in brief: as §1

[5] = compound: C1=CC=C(C=C1)C2=NC(=C(N2)C3=CC=NC=C3)C4=CC(=C(C=C4)Cl)O
Method in brief: as §1

[6] = compound: C1=CC=C2C(=C1)C3=NNC4=CC=CC(=C43)C2=O
Method in brief: as §1

[7] = compound: C1CCN(C1)C(=O)NC2=CC=CC(=C2)NC3=NC=C(C(=N3)NCCC4=CN=CN4)Br
Method in brief: as §1

[8] = compound: C1CN(CCC1(CC2=CC=C(C=C2)Cl)N)C3=NC=NC4=C3C=CN4
Method in brief: as §1

IRAK-1-4 Inhibitor I = compound: C1COCCN1CCN2C3=CC=CC=C3N=C2NC(=O)C4=CC(=CC=C4)[N+](=O)[O-] [IRAK-1-4 Inhibitor I]
Method in brief: as §1

ibrutinib = compound: C=CC(=O)N1CCC[C@@H](n2nc(-c3ccc(Oc4ccccc4)cc3)c3c(N)ncnc32)C1 [ibrutinib]
Method in brief: as §1

[9] = compound: CC(=O)c1cnc2ccc(-c3cc(Cl)c(O)c(Cl)c3)nc2c1N[C@H]1CC[C@H](CN(C)C)CC1
Method in brief: as §1

ralimetinib = compound: CC(C)(C)Cn1c(N)nc2ccc(-c3[nH]c(C(C)(C)C)nc3-c3ccc(F)cc3)nc21 [ralimetinib]
Method in brief: as §1

[10] = compound: CC(C)(O)CC(=O)NCCn1ccc2ncnc(Nc3ccc(Oc4cccc(C(F)(F)F)c4)c(Cl)c3)c21
Method in brief: as §1

[11] = compound: CC(C)C1=C2N=C(C=C(N2N=C1)NCC3=CC=CC=C3)NCCCCCCN
Method in brief: as §1

[12] = compound: CC1=C(C(CC(=O)N1)C2=CC=C(C=C2)C(F)(F)F)C(=O)NC3=C(C=C4C(=C3)C=NN4)F
Method in brief: as §1

[13] = compound: CC1=C(C2=C(C=C1)C(=O)C3=CC=CC=C3N2CCCN)C
Method in brief: as §1

[14] = compound: CC1=C(C=C(C=C1)NC(=O)C2=CC(=CC=C2)C(C)(C)C#N)NC3=CC4=C(C=C3)N=CN(C4=O)C
Method in brief: as §1

[15] = compound: CC1=C(C=C(C=C1)NC(=O)C2=CC(=CC=C2)N(C)C)NC(=O)C3=CC=C(C=C3)O
Method in brief: as §1

[16] = compound: CC1=CC=C(C=C1)SC2=C3C=C(SC3=CN=C2)C(=O)N
Method in brief: as §1

Measured: log2 fold change

ATP6AP2 (UniProt O75787)
inactive: erlotinib 0.024 | [1] -0.016 | [2] -0.041 | [3] 0.072 | [4] 0.07 | [5] -0.019 | [6] -0.015 | [7] -0.085 | [8] -0.041 | IRAK-1-4 Inhibitor I 0.012 | ibrutinib 0.037 | [9] 0.113 | ralimetinib 0.009 | [10] -0.049 | [11] -0.021 | [12] 0.013 | [13] -0.029 | [14] 0.017 | [15] -0.014 | [16] -0.01

ATP5ME (UniProt P56385)
inactive: erlotinib 0 | [1] -0.039 | [2] 0.001 | [3] -0.003 | [4] 0.029 | [5] -0.037 | [6] 0.01 | [7] 0.004 | [8] 0.058 | IRAK-1-4 Inhibitor I 0.006 | ibrutinib 0.009 | [9] -0.021 | ralimetinib 0.024 | [10] -0.037 | [11] -0.037 | [12] -0.028 | [13] -0.037 | [14] 0.039 | [15] -0.03 | [16] -0.045

ASMTL (UniProt O95671)
inactive: erlotinib 0.008 | [1] 0.004 | [2] 0.013 | [3] 0.001 | [4] 0.029 | [5] -0.005 | [6] -0.007 | [7] 0.001 | [8] 0.022 | IRAK-1-4 Inhibitor I 0.005 | ibrutinib -0.001 | [9] 0.017 | ralimetinib 0.019 | [10] -0.018 | [11] -0.023 | [12] -0.05 | [13] 0 | [14] -0.01 | [15] 0.029 | [16] -0.002

ATP5PD (UniProt O75947)
inactive: erlotinib 0.008 | [1] 0.035 | [2] 0 | [3] -0.012 | [4] 0.021 | [5] 0.006 | [6] 0 | [7] 0.048 | [8] 0.064 | IRAK-1-4 Inhibitor I 0.013 | ibrutinib 0.074 | [9] -0.017 | ralimetinib -0.045 | [10] -0.016 | [11] 0.021 | [12] -0.04 | [13] 0.013 | [14] 0.009 | [15] -0.028 | [16] -0.005

ATP2B1 isoform 1 (UniProt P20020)
inactive: erlotinib -0.026 | [1] -0.015 | [2] -0.009 | [3] -0.031 | [4] -0.009 | [5] -0.019 | [6] 0.026 | [7] -0.04 | [8] 0.024 | IRAK-1-4 Inhibitor I 0.016 | ibrutinib -0.007 | [9] 0.021 | ralimetinib 0.017 | [10] -0.032 | [11] 0.003 | [12] 0 | [13] 0.01 | [14] -0.018 | [15] 0.01 | [16] 0.004

Four consecutive entries out of the list so far, quoted:
ATP5ME (UniProt P56385)
inactive: erlotinib 0 | [1] -0.039 | [2] 0.001 | [3] -0.003 | [4] 0.029 | [5] -0.037 | [6] 0.01 | [7] 0.004 | [8] 0.058 | IRAK-1-4 Inhibitor I 0.006 | ibrutinib 0.009 | [9] -0.021 | ralimetinib 0.024 | [10] -0.037 | [11] -0.037 | [12] -0.028 | [13] -0.037 | [14] 0.039 | [15] -0.03 | [16] -0.045

ASMTL (UniProt O95671)
inactive: erlotinib 0.008 | [1] 0.004 | [2] 0.013 | [3] 0.001 | [4] 0.029 | [5] -0.005 | [6] -0.007 | [7] 0.001 | [8] 0.022 | IRAK-1-4 Inhibitor I 0.005 | ibrutinib -0.001 | [9] 0.017 | ralimetinib 0.019 | [10] -0.018 | [11] -0.023 | [12] -0.05 | [13] 0 | [14] -0.01 | [15] 0.029 | [16] -0.002

ATP5PD (UniProt O75947)
inactive: erlotinib 0.008 | [1] 0.035 | [2] 0 | [3] -0.012 | [4] 0.021 | [5] 0.006 | [6] 0 | [7] 0.048 | [8] 0.064 | IRAK-1-4 Inhibitor I 0.013 | ibrutinib 0.074 | [9] -0.017 | ralimetinib -0.045 | [10] -0.016 | [11] 0.021 | [12] -0.04 | [13] 0.013 | [14] 0.009 | [15] -0.028 | [16] -0.005

ATP2B1 isoform 1 (UniProt P20020)
inactive: erlotinib -0.026 | [1] -0.015 | [2] -0.009 | [3] -0.031 | [4] -0.009 | [5] -0.019 | [6] 0.026 | [7] -0.04 | [8] 0.024 | IRAK-1-4 Inhibitor I 0.016 | ibrutinib -0.007 | [9] 0.021 | ralimetinib 0.017 | [10] -0.032 | [11] 0.003 | [12] 0 | [13] 0.01 | [14] -0.018 | [15] 0.01 | [16] 0.004

(listing goes on)

AVEN (UniProt Q9NQS1)
inactive: erlotinib 0.111 | [1] 0.077 | [2] -0.205 | [3] -0.079 | [4] 0.183 | [5] 0.06 | [6] 0.055 | [7] -0.023 | [8] -0.013 | IRAK-1-4 Inhibitor I -0.096 | ibrutinib -0.03 | ralimetinib -0.061 | [10] -0.079 | [11] 0.055 | [12] 0.009 | [13] 0.027 | [14] 0.1 | [15] -0.08

ATRX (UniProt P46100)
inactive: erlotinib 0.08 | [1] 0.124 | [2] 0.057 | [3] -0.075 | [4] 0.129 | [5] -0.093 | [6] 0.04 | [7] 0.015 | [8] 0.008 | IRAK-1-4 Inhibitor I 0.026 | ibrutinib 0.097 | ralimetinib 0.015 | [10] 0.098 | [11] 0.001 | [13] -0.011 | [14] 0.084 | [15] -0.078

ATXN2 (UniProt F8WB05)
inactive: erlotinib 0.073 | [1] -0.082 | [2] 0.09 | [3] -0.191 | [4] -0.063 | [5] -0.011 | [6] -0.083 | [7] -0.036 | [8] 0.055 | IRAK-1-4 Inhibitor I -0.157 | ibrutinib -0.538 | [9] -0.104 | ralimetinib 0 | [10] 0.033 | [11] 0.037 | [13] 0.006 | [14] 0.119 | [15] -0.044 | [16] 0.048

ASPM (UniProt Q8IZT6)
inactive: erlotinib -0.044 | [1] -0.078 | [2] -0.006 | [3] -0.017 | [5] -0.009 | [6] 0.069 | [7] 0.03 | [8] 0.068 | IRAK-1-4 Inhibitor I -0.081 | [9] 0.02 | ralimetinib 0.04 | [10] -0.005 | [11] -0.051 | [12] 0 | [13] -0.021 | [14] -0.07 | [15] -0.026 | [16] 0.021

AURKB isoform 5 (UniProt Q96GD4)
inactive: erlotinib 0.05 | [1] -0.091 | [2] -0.047 | [3] -0.009 | [4] -0.035 | [6] 0.531 | [7] -0.063 | [8] -0.178 | ibrutinib -0.087 | [11] 0.079 | [12] -0.042 | [13] -0.147 | [14] -0.046

ATF7IP2 (UniProt Q5U623)
inactive: erlotinib 0.012 | [1] -0.034 | [2] 0.086 | [3] 0.026 | [4] -0.069 | [5] -0.027 | [6] -0.132 | IRAK-1-4 Inhibitor I 0.027 | ibrutinib 0.054 | [9] -0.03 | ralimetinib 0.045 | [10] -0.201 | [11] 0.058 | [12] -0.056 | [14] 0.097 | [15] -0.04 | [16] -0.088

ATP5F1B (UniProt F8W0P7)
inactive: erlotinib 0.091 | [1] 0.178 | [2] 0.024 | [3] -0.015 | [6] -0.163 | [11] 0.031 | [13] -0.106

ATF3 (UniProt P18847)
inactive: erlotinib -0.158 | [1] 0.007 | [2] -0.263 | [3] -0.124 | [5] 0.031 | [6] 0.049 | [7] 0.051 | [8] 0.131 | IRAK-1-4 Inhibitor I -0.03 | ralimetinib 0.009 | [10] -0.06 | [11] 0.015 | [12] -0.048 | [13] -0.042 | [14] 0.105 | [15] 0.045

ASXL1 (UniProt Q8IXJ9)
inactive: erlotinib 0.028 | [2] 0.008 | [4] 0.002 | [5] -0.049 | [7] 0.022 | [8] -0.027 | IRAK-1-4 Inhibitor I 0.065 | ibrutinib -0.009 | [9] -0.001 | ralimetinib 0.037 | [10] -0.005 | [11] -0.041 | [12] -0.085 | [13] -0.105 | [14] -0.023 | [15] -0.043 | [16] -0.029

ATRN (UniProt O75882)
inactive: erlotinib -0.03 | [1] 0.121 | [2] 0.074 | [3] -0.25 | [4] 0.003 | [5] -0.044 | [6] 0.114 | [7] -0.027 | [8] -0.052 | IRAK-1-4 Inhibitor I 0.059 | ibrutinib 0.133 | [9] -0.064 | ralimetinib 0.01 | [10] -0.031 | [11] -0.113 | [13] -0.039 | [14] 0.027 | [15] 0.003 | [16] -0.016

ATP6V0C (UniProt P27449)
inactive: erlotinib -0.075 | [1] 0.007 | [2] 0.078 | [3] 0.017 | [4] 0.01 | [5] -0.086 | [6] 0.036 | [7] -0.107 | [8] -0.008 | IRAK-1-4 Inhibitor I -0.034 | ibrutinib 0.006 | [9] -0.075 | ralimetinib -0.027 | [10] 0.009 | [11] -0.051 | [13] 0.047 | [14] 0.066 | [15] 0.028 | [16] 0.09

B3GNT5 (UniProt Q9BYG0)
inactive: erlotinib -0.02 | [1] 0.171 | [2] -0.159 | [3] 0.026 | [4] -0.084 | [5] 0.068 | [6] -0.159 | [7] 0.107 | [8] 0.073 | IRAK-1-4 Inhibitor I 0.183 | ibrutinib -0.034 | [9] 0.033 | ralimetinib 0.034 | [10] -0.044 | [11] 0.132 | [13] 0.001 | [15] 0.153 | [16] -0.161

ATXN2L (UniProt Q8WWM7)
inactive: erlotinib -0.001 | [1] -0.157 | [2] -0.002 | [3] -0.009 | [4] -0.009 | [5] -0.07 | [6] 0.049 | [7] -0.141 | [8] -0.021 | IRAK-1-4 Inhibitor I 0.018 | ibrutinib 0.035 | ralimetinib 0.025 | [10] -0.053 | [11] -0.012 | [12] -0.046 | [13] 0.145 | [14] -0.072 | [15] 0.08
